Three substances from PMC6207757 can be followed below.

These are yes or no findings as the source states them, for the method shown. Binding seen in cells or lysates may run through a third protein. Binding calls can cover weak binding; strength is not graded here.

The target in assay [1] is T1, CEP97 (partner in the domain mapping of MPP9) (UniProt Q8IW35).
T1 sequence: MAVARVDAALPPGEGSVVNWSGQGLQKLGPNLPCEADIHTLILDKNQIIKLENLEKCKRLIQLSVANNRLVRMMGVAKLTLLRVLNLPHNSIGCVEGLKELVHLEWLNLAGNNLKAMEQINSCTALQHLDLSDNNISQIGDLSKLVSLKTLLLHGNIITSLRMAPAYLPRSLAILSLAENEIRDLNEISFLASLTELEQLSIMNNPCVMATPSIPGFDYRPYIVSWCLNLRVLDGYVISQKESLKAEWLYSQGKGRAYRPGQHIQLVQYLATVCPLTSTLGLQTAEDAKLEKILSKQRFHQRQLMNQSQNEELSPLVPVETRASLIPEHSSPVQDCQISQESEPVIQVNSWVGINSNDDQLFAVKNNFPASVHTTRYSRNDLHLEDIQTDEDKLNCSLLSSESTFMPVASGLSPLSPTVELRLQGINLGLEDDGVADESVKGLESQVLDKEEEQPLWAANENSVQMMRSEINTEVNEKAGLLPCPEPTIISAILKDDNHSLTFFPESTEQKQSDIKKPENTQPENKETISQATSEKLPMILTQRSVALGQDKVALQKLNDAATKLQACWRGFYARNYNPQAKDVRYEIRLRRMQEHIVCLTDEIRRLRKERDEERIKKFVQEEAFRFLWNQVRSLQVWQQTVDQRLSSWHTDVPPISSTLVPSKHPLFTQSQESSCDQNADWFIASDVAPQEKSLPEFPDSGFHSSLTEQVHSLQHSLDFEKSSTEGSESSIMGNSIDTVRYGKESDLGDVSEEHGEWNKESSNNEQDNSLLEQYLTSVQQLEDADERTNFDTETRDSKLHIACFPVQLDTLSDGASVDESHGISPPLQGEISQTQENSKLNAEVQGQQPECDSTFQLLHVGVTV
Put plainly: pull-down + two-hybrid; domain mapping by pull-down with purified proteins in vitro and by yeast two-hybrid (AH109, quadruple selective medium); which method stands behind each panel of Supplementary Fig. 3f-n is not given.

Assay [2] deals with T2, KIF24 (partner in the domain mapping of MPP9) (UniProt Q5T7B8).
T2 sequence: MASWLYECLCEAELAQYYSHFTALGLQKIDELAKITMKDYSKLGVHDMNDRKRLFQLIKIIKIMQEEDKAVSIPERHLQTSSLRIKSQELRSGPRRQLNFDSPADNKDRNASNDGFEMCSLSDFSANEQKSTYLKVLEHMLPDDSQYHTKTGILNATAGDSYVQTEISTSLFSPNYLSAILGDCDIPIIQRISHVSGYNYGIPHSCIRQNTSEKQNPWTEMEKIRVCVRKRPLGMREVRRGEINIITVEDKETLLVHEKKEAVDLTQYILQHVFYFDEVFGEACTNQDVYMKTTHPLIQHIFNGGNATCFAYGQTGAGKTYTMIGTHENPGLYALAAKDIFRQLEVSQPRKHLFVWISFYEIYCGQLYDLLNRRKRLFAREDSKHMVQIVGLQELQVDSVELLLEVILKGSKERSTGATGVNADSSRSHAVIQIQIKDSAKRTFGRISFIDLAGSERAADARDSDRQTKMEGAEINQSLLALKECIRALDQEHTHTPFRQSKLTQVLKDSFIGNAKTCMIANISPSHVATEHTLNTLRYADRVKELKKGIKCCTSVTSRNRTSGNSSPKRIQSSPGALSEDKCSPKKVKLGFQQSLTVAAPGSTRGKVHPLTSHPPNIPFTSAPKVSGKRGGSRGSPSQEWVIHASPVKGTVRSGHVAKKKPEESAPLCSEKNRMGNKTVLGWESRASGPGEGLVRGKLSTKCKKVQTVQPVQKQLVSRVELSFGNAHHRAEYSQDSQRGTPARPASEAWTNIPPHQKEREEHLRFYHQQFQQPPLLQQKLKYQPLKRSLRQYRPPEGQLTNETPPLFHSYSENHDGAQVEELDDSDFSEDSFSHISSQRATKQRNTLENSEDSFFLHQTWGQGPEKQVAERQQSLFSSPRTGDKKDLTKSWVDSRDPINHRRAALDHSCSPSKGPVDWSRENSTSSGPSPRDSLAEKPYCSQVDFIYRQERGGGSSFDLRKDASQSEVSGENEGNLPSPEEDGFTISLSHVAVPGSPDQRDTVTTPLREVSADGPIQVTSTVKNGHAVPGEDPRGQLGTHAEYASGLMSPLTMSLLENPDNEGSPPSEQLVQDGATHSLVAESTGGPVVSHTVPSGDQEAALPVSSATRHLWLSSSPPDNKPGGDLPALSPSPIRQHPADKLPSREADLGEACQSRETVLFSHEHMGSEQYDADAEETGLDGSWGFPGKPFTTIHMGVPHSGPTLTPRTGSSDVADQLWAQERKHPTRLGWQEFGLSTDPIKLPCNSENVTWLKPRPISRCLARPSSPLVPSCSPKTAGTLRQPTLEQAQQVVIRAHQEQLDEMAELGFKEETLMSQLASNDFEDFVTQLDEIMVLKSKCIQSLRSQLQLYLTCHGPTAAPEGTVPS
The description is as above.

As for MPP9 (401-800 aa) (domain or fragment), the binding result in assay [1] was “binds”. Regarding MPP9 (451-500 aa) (domain or fragment), the binding result in assay [1] is “binds”.

In the case of MPP9 (801–1031 aa) (domain or fragment), the binding entry in assay [2] is on record as “binds”.
